Results are given in words; binding and its absence hold for the method and conditions named. In cells and extracts the contact can be indirect. Tags and fused reporters may be left off the sequences shown.
T1: SNX19-GFP (human) (UniProt Q92543)
T1 sequence: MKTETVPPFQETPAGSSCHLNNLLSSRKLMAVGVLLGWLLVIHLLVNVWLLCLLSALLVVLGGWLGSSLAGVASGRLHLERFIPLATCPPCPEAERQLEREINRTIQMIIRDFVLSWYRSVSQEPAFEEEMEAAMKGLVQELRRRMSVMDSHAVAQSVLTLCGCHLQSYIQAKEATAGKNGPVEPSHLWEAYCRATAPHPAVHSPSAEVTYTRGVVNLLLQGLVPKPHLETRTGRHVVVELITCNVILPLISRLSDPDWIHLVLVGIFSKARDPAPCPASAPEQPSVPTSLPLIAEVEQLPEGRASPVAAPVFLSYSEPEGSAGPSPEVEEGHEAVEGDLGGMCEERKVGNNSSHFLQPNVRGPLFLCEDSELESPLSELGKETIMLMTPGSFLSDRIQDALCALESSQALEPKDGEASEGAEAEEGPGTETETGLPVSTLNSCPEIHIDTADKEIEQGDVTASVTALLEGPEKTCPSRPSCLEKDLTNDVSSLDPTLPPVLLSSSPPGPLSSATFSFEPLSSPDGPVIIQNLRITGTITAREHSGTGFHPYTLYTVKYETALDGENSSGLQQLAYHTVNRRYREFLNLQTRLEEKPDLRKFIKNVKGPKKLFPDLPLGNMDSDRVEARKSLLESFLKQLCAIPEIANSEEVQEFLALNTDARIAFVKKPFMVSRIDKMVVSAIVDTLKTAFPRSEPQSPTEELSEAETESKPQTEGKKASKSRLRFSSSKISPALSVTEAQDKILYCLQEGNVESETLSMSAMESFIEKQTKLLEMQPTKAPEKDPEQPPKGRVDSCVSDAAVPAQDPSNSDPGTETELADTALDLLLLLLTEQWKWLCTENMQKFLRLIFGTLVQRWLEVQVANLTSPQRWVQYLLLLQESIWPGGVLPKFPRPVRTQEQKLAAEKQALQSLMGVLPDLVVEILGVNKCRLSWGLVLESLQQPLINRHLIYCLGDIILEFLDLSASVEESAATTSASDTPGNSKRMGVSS

By UniProt entry, the sequences of proteins in these tests, tags left out. Where a name states a change or a piece, a line headed by the entry shows the natural chain unless it says otherwise. Residues count along the entry.
UniProt Q9Y6G9, residues 389-523: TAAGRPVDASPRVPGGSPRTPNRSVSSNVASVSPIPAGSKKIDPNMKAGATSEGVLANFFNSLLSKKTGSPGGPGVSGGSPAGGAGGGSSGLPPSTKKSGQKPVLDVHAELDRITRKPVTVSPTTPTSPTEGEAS
UniProt P33176: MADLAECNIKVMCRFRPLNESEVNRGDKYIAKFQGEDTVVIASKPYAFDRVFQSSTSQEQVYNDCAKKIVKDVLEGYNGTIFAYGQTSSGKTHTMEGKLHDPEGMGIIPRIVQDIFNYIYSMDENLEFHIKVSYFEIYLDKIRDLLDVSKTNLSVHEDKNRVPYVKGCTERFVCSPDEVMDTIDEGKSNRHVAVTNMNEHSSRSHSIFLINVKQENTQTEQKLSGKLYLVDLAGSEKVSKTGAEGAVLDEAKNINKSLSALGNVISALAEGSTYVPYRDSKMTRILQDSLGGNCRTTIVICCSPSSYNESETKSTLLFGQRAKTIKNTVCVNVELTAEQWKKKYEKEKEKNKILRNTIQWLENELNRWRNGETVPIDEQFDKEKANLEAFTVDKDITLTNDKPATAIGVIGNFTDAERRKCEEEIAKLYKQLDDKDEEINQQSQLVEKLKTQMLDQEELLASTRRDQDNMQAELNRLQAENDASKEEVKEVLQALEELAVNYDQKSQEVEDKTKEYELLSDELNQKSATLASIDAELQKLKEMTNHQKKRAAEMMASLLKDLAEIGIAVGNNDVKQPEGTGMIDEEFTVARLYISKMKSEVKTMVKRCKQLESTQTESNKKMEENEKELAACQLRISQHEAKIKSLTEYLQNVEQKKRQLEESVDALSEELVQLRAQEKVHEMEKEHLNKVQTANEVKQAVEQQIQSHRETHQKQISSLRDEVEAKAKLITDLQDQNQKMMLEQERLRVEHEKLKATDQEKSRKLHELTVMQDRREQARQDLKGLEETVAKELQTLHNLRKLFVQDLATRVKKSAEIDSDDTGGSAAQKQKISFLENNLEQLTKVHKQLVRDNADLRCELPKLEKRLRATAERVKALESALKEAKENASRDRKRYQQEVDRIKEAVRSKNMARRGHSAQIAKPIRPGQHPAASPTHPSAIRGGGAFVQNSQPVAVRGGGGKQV


Columns and labels:
SNX19-GFP (human) = biological target: T1, SNX19-GFP (human); experiment: co-IP; GFP-Trap magnetic beads on lysates of HEK293T cells transfected with SNX19-GFP; endogenous kinesin chains looked for by immunoblot
GST-LIC1-CT (human) = GST-LIC1-CT (human) (UniProt Q9Y6G9); experiment: pull-down; purified GST-LIC1-CT re-bound to glutathione resin, incubated 1 h at 4 °C with pre-cleared lysate of HEK293T cells transfected with SNX19-GFP; washed in 10 mM Tris-HCl pH 7, 50 mM NaCl, 2 mM MgCl2, 2 mM TCEP; immunoblot for GFP and GST; only the target purified

binding (SNX19-GFP (human))	binding (GST-LIC1-CT (human))	Molecule
no binding	–	kinesin-1 (from UniProt P33176 1-963; Q9H0B6 1-622) (complex)
–	no binding	SNX19-GFP (protein, UniProt Q92543 1-992) MKTETVPPFQETPAGSSCHLNNLLSSRKLMAVGVLLGWLLVIHLLVNVWLLCLLSALLVVLGGWLGSSLAGVASGRLHLERFIPLATCPPCPEAERQLEREINRTIQMIIRDFVLSWYRSVSQEPAFEEEMEAAMKGLVQELRRRMSVMDSHAVAQSVLTLCGCHLQSYIQAKEATAGKNGPVEPSHLWEAYCRATAPHPAVHSPSAEVTYTRGVVNLLLQGLVPKPHLETRTGRHVVVELITCNVILPLISRLSDPDWIHLVLVGIFSKARDPAPCPASAPEQPSVPTSLPLIAEVEQLPEGRASPVAAPVFLSYSEPEGSAGPSPEVEEGHEAVEGDLGGMCEERKVGNNSSHFLQPNVRGPLFLCEDSELESPLSELGKETIMLMTPGSFLSDRIQDALCALESSQALEPKDGEASEGAEAEEGPGTETETGLPVSTLNSCPEIHIDTADKEIEQGDVTASVTALLEGPEKTCPSRPSCLEKDLTNDVSSLDPTLPPVLLSSSPPGPLSSATFSFEPLSSPDGPVIIQNLRITGTITAREHSGTGFHPYTLYTVKYETALDGENSSGLQQLAYHTVNRRYREFLNLQTRLEEKPDLRKFIKNVKGPKKLFPDLPLGNMDSDRVEARKSLLESFLKQLCAIPEIANSEEVQEFLALNTDARIAFVKKPFMVSRIDKMVVSAIVDTLKTAFPRSEPQSPTEELSEAETESKPQTEGKKASKSRLRFSSSKISPALSVTEAQDKILYCLQEGNVESETLSMSAMESFIEKQTKLLEMQPTKAPEKDPEQPPKGRVDSCVSDAAVPAQDPSNSDPGTETELADTALDLLLLLLTEQWKWLCTENMQKFLRLIFGTLVQRWLEVQVANLTSPQRWVQYLLLLQESIWPGGVLPKFPRPVRTQEQKLAAEKQALQSLMGVLPDLVVEILGVNKCRLSWGLVLESLQQPLINRHLIYCLGDIILEFLDLSASVEESAATTSASDTPGNSKRMGVSS
